The source of these data is PubChem BioAssay AID264 (DTP/NCI, 2004).

The subject of this assay is nude mice, LX-1 lung xenograft intrarenal, tumor weight T/C. Put plainly: NCI In Vivo Anticancer Drug Screen. Data for tumor model Human Lung LX-1 Xenograft (intrarenal inoculation) in NU/NU Swiss (nude) mice. Conditions: T/C endpoint: mean tumor weight change, higher T/C = larger tumour; for T/C: evaluated on day 11. Put shortly: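 Readout: T/C, i.e. treated-group tumor measurement over vehicle-control measurement. Mice bearing transplantable tumors were dosed with compound or vehicle.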

Where [1] appears, read: dose: 400.0 mg/kg/injection, schedule: Q01DX010 (sc), vehicle: Klucel (hydroxypropylcellulose) (HPC).
[2] abbreviates: dose: 100.0 mg/kg/injection, schedule: Q04DX003 (sc), vehicle: water.

The list is a part of this screen's results and no random one: it gathers tests that were run many times, whatever their T/C, doses with no T/C, and many T/C values between a quarter and a half above the control. Other doses and runs of a compound stand elsewhere. T/C is the treated group as % of the vehicle group. Schedules are NCI's codes, read here as Q, the interval in days (D) or hours (H), X, the number of doses. Some T/C values carry the count of animals alive at the toxicity check (mostly the fifth day); without a count, all were alive then. Some entries give survivors of the animals treated and no T/C: the source files T/C as zero there, which appears to mark a toxic dose or a test without result, not a measured value. Survivors were counted at the toxicity check, usually on the fifth day, unless a day is given; later deaths do not show. Some entries were tested several times; the values are given in rising order.

As to `COc1cc2cc(c1Cl)N(C)C(=O)CC(OC(=O)C(C)C)C1(C)OC1C(C)C1CC(O)(NC(=O)O1)C(OC)/C=C/C=C(C)C2` (centres undefined), the T/C (dose: 25.0 micrograms/kg/injection, schedule: Q01DX010 (sc), vehicle: saline + alcohol) was 135 % of control. For the same molecule, the survivor count was 3 of 6 on day 11 (dose: 100.0 micrograms/kg/injection, schedule: Q01DX010 (sc), vehicle: saline + alcohol) and 1 of 6 on day 11 (dose: 200.0 micrograms/kg/injection, schedule: Q01DX010 (sc), vehicle: saline + alcohol).
On to `CC(=O)[O][Pb]([O]C(C)=O)([c]1ccccc1)[c]1ccccc1`, for which the survivor count under setting [1] is recorded as 1 of 3 on day 11.
For the molecule `CCN1/C(=C/C(C)=C/c2sc3ccc4ccccc4c3[n+]2CC)Sc2ccc3ccccc3c21`, the survivor count (dose: 6.0 mg/kg/injection, schedule: Q04DX003 (sc), vehicle: Klucel (hydroxypropylcellulose) (HPC)) is reported as 3 of 6 on day 11; the survivor count (dose: 12.0 mg/kg/injection, schedule: Q04DX003 (sc), vehicle: Klucel (hydroxypropylcellulose) (HPC)) was 2 of 6 on day 11; the survivor count (dose: 24.0 mg/kg/injection, schedule: Q04DX003 (sc), vehicle: Klucel (hydroxypropylcellulose) (HPC)) is 3 of 6 on day 11.
As to `Oc1ccccc1C=NCCC[N-]CCCN=Cc1ccccc1O.[Co]`, where the note is “dose: 25.0 mg/kg/injection, schedule: Q01DX010 (sc), vehicle: suspension in saline”, the T/C is 147 % of control. For the setting “dose: 200.0 mg/kg/injection, schedule: Q01DX010 (sc), vehicle: suspension in saline”, the survivor count is listed as 0 of 3 on day 11.
For the molecule `Nc1cc(Cl)c2[nH]cnc2n1`, the T/C under setting [2] was 125 % of control. The survivor count (dose: 800.0 mg/kg/injection, schedule: Q04DX003 (sc), vehicle: water) is 3 of 6 on day 11.
Regarding `ClC1=C(Cl)C(Cl)=C(Cl)C1=Cc1ccccc1`, the T/C (dose: 100.0 mg/kg/injection, schedule: Q04DX003 (sc), vehicle: saline with Tween-80) was 139 % of control.
On to `C=CS(C=C)=NS(=O)(=O)c1ccc(C)cc1`, for which the survivor count (dose: 150.0 mg/kg/injection, schedule: Q04DX003 (sc), vehicle: Klucel (hydroxypropylcellulose) (HPC)) is reported as 0 of 6 on day 11.
On to `CCC1(O)CC2CN(CCc3c([nH]c4ccccc34)C(C(=O)OC)(c3cc4c(cc3OC)N(C)C3C(O)(C(=O)NCCSSCCNC(=O)C5(O)C(O)C6(CC)C=CCN7CCC8(c9cc(C%10(C(=O)OC)CC%11CN(CCc%12c%10[nH]c%10ccccc%12%10)CC(O)(CC)C%11)c(OC)cc9N(C)C58)C76)C(O)C5(CC)C=CCN6CCC43C65)C2)C1` (centres undefined), for which the T/C (dose: 3.0 mg/kg/injection, schedule: Q04DX003 (sc), vehicle: suspension in saline) was 132 % of control.
On to `CC(=O)O[C@@H]1CO[C@H]2O[C@H]3[C@@H](C(C=O)=C[C@H](O)[C@@H]4C5=C(C(C)C)CC[C@]5(C)CC[C@@]34C)[C@@]2(O)C1=O`, for which the survivor count is recorded as 3 of 6 on day 11 (dose: 100.0 mg/kg/injection, schedule: Q04DX003 (sc), vehicle: Klucel (hydroxypropylcellulose) (HPC)) and 3 of 6 on day 11 (dose: 400.0 mg/kg/injection, schedule: Q04DX003 (sc), vehicle: Klucel (hydroxypropylcellulose) (HPC)).
In the case of `COc1cc([C@@H]2c3cc4c(c(O)c3C[C@H]3COC(=O)[C@@H]32)OCO4)cc(OC)c1O`, the T/C runs as follows: (dose: 0.5 mg/kg/injection, schedule: Q01DX010 (sc), vehicle: saline) 141 % of control; (dose: 2.0 mg/kg/injection, schedule: Q01DX010 (sc), vehicle: saline) 145 % of control [2 of 3 alive on day 11]. In addition, the survivor count (dose: 4.0 mg/kg/injection, schedule: Q01DX010 (sc), vehicle: saline) is given as 1 of 3 on day 11.
For the molecule `CO[C@@]12[C@H](COC(N)=O)C3=C(C(=O)C(C)=C(N)C3=O)N1C[C@@H]1N[C@@H]12`, the survivor count runs as follows: (dose: 10.0 mg/kg/injection, schedule: Q04DX003 (sc), vehicle: saline) 0 of 6 on day 11; (dose: 12.0 mg/kg/injection, schedule: Q04DX003 (sc), vehicle: saline) 0 of 6 on day 11 and 3 of 6 on day 11; (dose: 12.0 mg/kg/injection, schedule: Q04DX003 (sc), vehicle: suspension in saline) 0 of 6 on day 11; (dose: 24.0 mg/kg/injection, schedule: Q04DX003 (sc), vehicle: saline) 0 of 6 on day 11; (dose: 24.0 mg/kg/injection, schedule: Q04DX003 (sc), vehicle: suspension in saline) 0 of 6 on day 11.
With `CNc1nc(N(C)C)nc(N(C)C)n1`, the T/C (dose: 25.0 mg/kg/injection, schedule: Q04DX003 (sc), vehicle: water) was 130 % of control [5 of 6 alive on day 11]; the T/C (dose: 50.0 mg/kg/injection, schedule: Q04DX003 (sc), vehicle: water) is 140 % of control; the T/C under setting [2] is 125 % of control. Moreover, the survivor count reads like this: (dose: 120.0 mg/kg/injection, schedule: Q01DX010 (ip), vehicle: water) 1 of 3 on day 11; (dose: 200.0 mg/kg/injection, schedule: Q04DX003 (sc), vehicle: water) 1 of 3 on day 11; (dose: 400.0 mg/kg/injection, schedule: Q04DX003 (ip), vehicle: water) 0 of 3 on day 11; (dose: 400.0 mg/kg/injection, schedule: Q04DX003 (sc), vehicle: water) 0 of 3 on day 11.
Take `CCOC(=O)C(CC(C)C)NC(=O)C(Cc1ccc(N(CCCl)CCCl)cc1)NC(C)=O` (centres undefined): for the setting “dose: 100.0 mg/kg/injection, schedule: Q01DX010 (sc), vehicle: saline with Tween-80”, the survivor count was 0 of 3 on day 11.
Regarding `Oc1ccc(CCl)c2cccnc12`, where the note is “dose: 600.0 mg/kg/injection, schedule: Q04DX003 (sc), vehicle: saline”, the survivor count is on record as 3 of 6 on day 11.
In the case of `CCC(C(=O)O)C(=O)O.[NH2-].[NH2-].[Pt+2]`, the survivor count (dose: 300.0 mg/kg/injection, schedule: Q04DX003 (sc), vehicle: saline) is given as 1 of 6 on day 11.
On to `CC(C)NC(=O)N(CCCCBr)N=O`, for which the survivor count (dose: 600.0 mg/kg/injection, schedule: Q04DX003 (sc), vehicle: Klucel (hydroxypropylcellulose) (HPC)) is 2 of 4 on day 11.
Regarding `CCCCCCCCCCCCCCCC(=O)Nc1ccn(C2OC(CO)C(O)C2O)c(=O)n1` (centres undefined), the survivor count is listed as 2 of 6 on day 11 (dose: 1200.0 mg/kg/injection, schedule: Q04DX003 (sc), vehicle: water) and 0 of 6 on day 11 (dose: 2400.0 mg/kg/injection, schedule: Q04DX003 (sc), vehicle: water).
`COC1=C(C)C(=O)C2=C(C1=O)C1C3CC4=C(C(=O)C(OC)=C(C)C4=O)C(CNC(=O)C(C)=O)N3C(C#N)C(C2)N1C` (centres undefined): the survivor count (dose: 8.0 mg/kg/injection, schedule: Q04DX003 (sc), vehicle: Klucel (hydroxypropylcellulose) (HPC)) is reported as 3 of 6 on day 11.
`CN1c2c(nc(N)[nH]c2=O)NCC1CCNc1ccc(C(=O)NC(CCC(=O)O)C(=O)O)cc1` (centres undefined): the survivor count (dose: 800.0 mg/kg/injection, schedule: Q01DX010 (sc), vehicle: saline) is reported as 0 of 3 on day 11.
On to `COC1C(C)OC(OC2CC(C)(O)Cc3cc4c(c(O)c32)C(=O)c2c(O)cc3c(c2C4=O)OC2OC3(C)C(O)C(N(C)C)C2O)C(OC)C1(C)OC` (centres undefined), for which, under “dose: 10.0 mg/kg/injection, schedule: Q04DX003 (sc), vehicle: Klucel (hydroxypropylcellulose) (HPC)”, the T/C was 130 % of control.
On to `CCOC(=O)Nc1cc2c(c(N)n1)N=C(CN(C)c1ccccc1)CN2`, for which the survivor count (dose: 50.0 mg/kg/injection, schedule: Q01DX010 (sc), vehicle: Klucel (hydroxypropylcellulose) (HPC)) is on record as 1 of 3 on day 11.
As to `Cc1cc(N(CCOS(C)(=O)=O)CCOS(C)(=O)=O)ccc1C=Nc1ccc(-c2nc(Cc3ccccc3)sc2C)cc1`, the survivor count is reported as 1 of 3 on day 11 (dose: 200.0 mg/kg/injection, schedule: Q01DX010 (sc), vehicle: Klucel (hydroxypropylcellulose) (HPC)); 0 of 3 on day 11 under setting [1]; 1 of 3 on day 11 (dose: 800.0 mg/kg/injection, schedule: Q01DX010 (sc), vehicle: Klucel (hydroxypropylcellulose) (HPC)).
Take `O=[Te]=O`: the T/C (dose: 25.0 mg/kg/injection, schedule: Q04DX003 (sc), vehicle: suspension in saline) is 136 % of control. The survivor count reads like this: (dose: 50.0 mg/kg/injection, schedule: Q04DX003 (sc), vehicle: suspension in saline) 1 of 6 on day 11; (dose: 100.0 mg/kg/injection, schedule: Q04DX003 (sc), vehicle: suspension in saline) 0 of 6 on day 11.
With `ClCCCN1CCCCC1CCl` (centres undefined), the survivor count is on record as 0 of 6 on day 11 (dose: 50.0 mg/kg/injection, schedule: Q04DX003 (sc), vehicle: saline) and 0 of 6 on day 11 (dose: 100.0 mg/kg/injection, schedule: Q04DX003 (sc), vehicle: saline).
